Reference: patent publication US20250073347A1
Results are given in words; binding and its absence hold for the method and conditions named.

Chains of the proteins cited; added tags and fusions are not shown. Lines headed by an entry give the natural chain unless they say otherwise; changes in a name come on top. A line that says so, or that is headed by a name, gives the form on record, which may keep a tag or linker.
human Claudin18.2 on cells (P56856, form named): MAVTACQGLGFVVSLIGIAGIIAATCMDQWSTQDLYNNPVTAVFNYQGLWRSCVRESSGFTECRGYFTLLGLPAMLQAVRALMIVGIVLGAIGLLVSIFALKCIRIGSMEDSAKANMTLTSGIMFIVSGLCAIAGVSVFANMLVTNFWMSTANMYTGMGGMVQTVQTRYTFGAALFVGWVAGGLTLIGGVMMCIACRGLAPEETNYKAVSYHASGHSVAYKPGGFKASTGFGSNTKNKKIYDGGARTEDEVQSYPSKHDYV

How the values were obtained:
[1] = target: human Claudin18.2 on cells (human) (UniProt P56856); assay: flow cytometry on DANG-hCLDN18.2 cells, relative MFI (fold)
[2] = target: human Claudin18.2 on cells (human) (UniProt P56856); assay: flow cytometry on DAN-G-hCLDN18.2 cells

binding [1]: no binding (tested: 100 nM)
binding [2]: no binding
B1: IEX019-06 (SYN-IgG1-Ex) (antibody, V domains shown)
VH: QVQLVQSGAEVKKPGASVKVSCQASGYRFSNFVIHWVRQAPGQRFEWMGWINPYNGNKEFSAKFQDRVTFTADTSANTAYMELRSLRSADTAVYYCARVGPYSWDDSPQDNYYMDVWGKGTTVIVSS
VL: EIVLTQSPGTLSLSPGERATFSCRSSHSIRSRRVAWYQHKPGQAPRLVIHGVSNRASGISDRFSGSGSGTDFTLTITRVEPEDFALYYCQVYGASSYTFGQGTKLERKR
